Results on four molecules are retold here after patent US20200331998A1.

These are yes or no findings as the source states them, for the method shown. Binding can be weak; no strength is given.

The target of this assay is CAR with an scFv derived from humanized 4G7 (h4G7.7). The experiment in a line: flow cytometry on primary human T cells expressing the h4G7.7 CAR (row H4G7.7-R2).

B1: E2153.2H8.A8 (antibody, V domains shown)
VH: QVQLQQSGAELVKPGASVKVSCKAFGYTFTTYPIEWMRQNHGKSLEWIGNFHPYNDDTRYNEKFKDKAKLTVEKSSSTVYLELSRLTYDDSAVYYCTRGNDYDLYGMDYWGQGTSVTVSS
VL: DIKMTQSPSSMYASLGERVTITCKASQDINTYLTWFQQKPGKSPKTLIYRANRLVDGVPSRFSGSGSGQDYSLTISSLEYEDMGIYYCLQCDDFPLTFGAGTKLELKR
In the case of B1, the binding result is listed as “binds”.

B2: E2153.1C4.E2 (antibody, V domains shown)
VH: QVQLQQSGAELVKPGASVKVSCKAFGYTFTTYPIEWMRQNHGKSLEWIGNFHPYNDDTRYNEKFKDKAKLTVEKSSSTVYLELSRLTYDDSAVYYCTRGNDYDLYGMDYWGQGTSVTVSS
VL: DIKMTQFPSSMYASLGERVTITCKASQDINTYLTWFQQKPGKSPKTLIYRANRLVDGVPSRFSGSGSGQDYSLTISSLEYEDMGIYYCLQCDDFPLTFGAGTKLELK
On to B2, for which the binding result is given as “binds”.

B3: E2153.1D9.B4 (antibody, V domains shown)
VH: QVQLQQSGAELVRPGTSVKVSCKASGYAFTNYLIEWIKQRPGQGLEWIGVINPGSGGINYNEKFKGKATLTSDKSSSTAYMQLSSLTSDDSAVYFCARWLDYDWFAYWGQGTLVTVSA
VL: DIKMTQFPSSMYASVGERVTITCKASQDINSYLSWFQQKPGKSPKTLIYRANRLVDGVPSRFSGSGSGQDYSLTISSLEYEDMGIYYCLQCDEFPFTFGGGTKLEIK
As for B3, the binding entry was “binds”.

B4: E2153.4D7.E11 (antibody, V domains shown)
VH: QVQLQQSGAELVRPGTSVKVSCKASGYAFTNYLIEWVKQRPGQGLEWIGVITPGSGGSNYNEKFKGKATLTADKSSSTAYMQLSSLTSDDSAVYFCARWLDYDWFAYWGQGTLVTVSA
VL: DIKMTQSPSSMYASLGERVTITCKASQDINSYLSWFQQKPGKSPKTLIYRANRLVDGVPSRFSGSGSGQDYSLTISSLEYEDMGIYYCRQCDEFPSTFGGGTKLEIK
As for B4, the binding entry is on record as “binds”.
